Here are results for three molecules from PMC12669767.

Where a chain is given by its changes, count along the chain named. These are yes or no findings as the source states them, for the method shown. Binding seen in cells or lysates may run through a third protein. A yes stands for co-enrichment or nearness to the bait. Other partners may have been found. For some of these results: Sequences can lack the tags named with a protein.

Holding throughout (experiment): affinity purification with mass spectrometry; label-free interactome: ALFA-TXNIP or its PPxY mutants precipitated from transfected HEK293T lysate on ALFA Selector ST magnetic beads, 3 h at 4 °C; 30 mM Tris pH 7.5, 150 mM NaCl, 0.5% octyl-glucopyranoside; abundances normalised to empty beads; n = 3
Experiment [1] deals with T1, ALFA-tagged TXNIP (thioredoxin interacting protein), expressed in HEK293T (human), Q9H3M7.
T1 chain: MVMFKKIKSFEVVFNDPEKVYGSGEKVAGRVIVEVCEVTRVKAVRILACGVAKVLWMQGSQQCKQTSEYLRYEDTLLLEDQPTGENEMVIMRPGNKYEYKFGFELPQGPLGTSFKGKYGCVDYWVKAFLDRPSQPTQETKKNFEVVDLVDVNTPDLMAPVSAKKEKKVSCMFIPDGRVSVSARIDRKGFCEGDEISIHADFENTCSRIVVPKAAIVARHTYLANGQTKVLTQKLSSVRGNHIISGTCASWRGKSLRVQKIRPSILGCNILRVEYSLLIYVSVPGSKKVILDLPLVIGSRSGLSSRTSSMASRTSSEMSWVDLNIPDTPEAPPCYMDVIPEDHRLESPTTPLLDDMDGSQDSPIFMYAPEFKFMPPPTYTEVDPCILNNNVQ
As to conditions: remark: other sources report otherwise.

The target in experiment [2] is T2, ALFA-TXNIP^(PPCY331AACA, PPTY375AATA) (both PPxY motifs mutated) (human) (UniProt Q9H3M7).
T2 sequence: T1 chain with P331A, P332A, Y334A, P375A, P376A, Y378A

Experiment [3] concerns the target T3, ALFA-TXNIP^PPCY331AACA (first PPxY motif mutated) (human) (UniProt Q9H3M7).
T3 sequence: T1 chain with P331A, P332A, Y334A

B1: NEDD4L, endogenous in HEK293T, Q96PU5 1-975 (enzyme)
chain: MATGLGEPVYGLSEDEGESRILRVKVVSGIDLAKKDIFGASDPYVKLSLYVADENRELALVQTKTIKKTLNPKWNEEFYFRVNPSNHRLLFEVFDENRLTRDDFLGQVDVPLSHLPTEDPTMERPYTFKDFLLRPRSHKSRVKGFLRLKMAYMPKNGGQDEENSDQRDDMEHGWEVVDSNDSASQHQEELPPPPLPPGWEEKVDNLGRTYYVNHNNRTTQWHRPSLMDVSSESDNNIRQINQEAAHRRFRSRRHISEDLEPEPSEGGDVPEPWETISEEVNIAGDSLGLALPPPPASPGSRTSPQELSEELSRRLQITPDSNGEQFSSLIQREPSSRLRSCSVTDAVAEQGHLPPPSAPAGRARSSTVTGGEEPTPSVAYVHTTPGLPSGWEERKDAKGRTYYVNHNNRTTTWTRPIMQLAEDGASGSATNSNNHLIEPQIRRPRSLSSPTVTLSAPLEGAKDSPVRRAVKDTLSNPQSPQPSPYNSPKPQHKVTQSFLPPGWEMRIAPNGRPFFIDHNTKTTTWEDPRLKFPVHMRSKTSLNPNDLGPLPPGWEERIHLDGRTFYIDHNSKITQWEDPRLQNPAITGPAVPYSREFKQKYDYFRKKLKKPADIPNRFEMKLHRNNIFEESYRRIMSVKRPDVLKARLWIEFESEKGLDYGGVAREWFFLLSKEMFNPYYGLFEYSATDNYTLQINPNSGLCNEDHLSYFTFIGRVAGLAVFHGKLLDGFFIRPFYKMMLGKQITLNDMESVDSEYYNSLKWILENDPTELDLMFCIDEENFGQTYQVDLKPNGSEIMVTNENKREYIDLVIQWRFVNRVQKQMNAFLEGFTELLPIDLIKIFDENELELLMCGLGDVDVNDWRQHSIYKNGYCPNHPVIQWFWKAVLLMDAEKRIRLLQFVTGTSRVPMNGFAELYGSNGPQLFTIEQWGSPEKLPRAHTCFNRLDLPPYETFEDLREKLLMAVENAQGFEGVD
Turning to B1, in experiment [1], the binding result is listed as “binds”.

B2: TXN (Thioredoxin), endogenous in HEK293T, P10599 1-105 (protein)
chain: MVKQIESKTAFQEALDAAGDKLVVVDFSATWCGPCKMIKPFFHSLSEKYSNVIFLEVDVDDCQDVASECEVKCMPTFQFFKKGQKVGEFSGANKEKLEATINELV
As for B2, the binding entry in experiment [1] is on record as “binds”.

B3: TXN (Thioredoxin), endogenous in HEK293T (protein, UniProt P10599 1-105)
chain: B2 chain
Regarding B3, the binding entry in experiment [2] and in experiment [3] was “binds” throughout.
